Values quoted from earlier work, collected in patent EP0041795A2, “Injectable composition of rapamycin” (AYERST, MCKENNA AND HARRISON INC., priority 1980, dated 1981).
At least one structure is not confirmed: it was looked up by name or label, or the drawing left a doubt.

Experiments:
Settings in all cases: cited from earlier work
Candida albicans [1] = test system: Candida albicans
Candida albicans [2] = test system: Candida albicans; remark: listed apart in the source
carcinogenic tumors = test system: carcinogenic tumors

Structure (SMILES): CO[C@H]1C[C@@H]2CC[C@@H](C)[C@@](O)(O2)C(=O)C(=O)N2CCCC[C@H]2C(=O)O[C@H]([C@H](C)C[C@@H]2CC[C@@H](O)[C@H](OC)C2)CC(=O)[C@H](C)/C=C(\C)[C@@H](O)[C@@H](OC)C(=O)[C@H](C)C[C@H](C)/C=C/C=C/C=C/1C [Rapamycin]
- effectiveness against Candida albicans in vitro (Candida albicans [1]): particularly effective
- effectiveness against Candida albicans in vivo (Candida albicans [2]): particularly effective
- treating carcinogenic tumors in a mammal (carcinogenic tumors): effective agent
